Experimental findings from article doi:10.1101/2022.10.25.513763 are described below.

Amino acid sequences for entries named in this document (tags omitted).
UniProt Q01939, whole entry: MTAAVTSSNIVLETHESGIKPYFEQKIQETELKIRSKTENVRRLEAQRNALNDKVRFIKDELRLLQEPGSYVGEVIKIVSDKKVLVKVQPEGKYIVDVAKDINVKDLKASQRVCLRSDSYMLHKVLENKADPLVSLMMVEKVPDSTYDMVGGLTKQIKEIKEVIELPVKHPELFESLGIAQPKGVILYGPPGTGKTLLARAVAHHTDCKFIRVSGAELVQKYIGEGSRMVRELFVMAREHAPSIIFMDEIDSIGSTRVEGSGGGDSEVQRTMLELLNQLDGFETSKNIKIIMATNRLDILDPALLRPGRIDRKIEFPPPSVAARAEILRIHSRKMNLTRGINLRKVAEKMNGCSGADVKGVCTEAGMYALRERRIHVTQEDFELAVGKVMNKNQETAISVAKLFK

These are yes or no findings as the source states them, for the method shown. Binding seen in cells or lysates may run through a third protein. Some binding calls cover weakened binding; strength is not graded here. Sequences can lack the tags named with a protein.

Assay [1] addresses T1, FLAG-tagged Rpt1 (S. cerevisiae) (UniProt P33299).
T1 sequence: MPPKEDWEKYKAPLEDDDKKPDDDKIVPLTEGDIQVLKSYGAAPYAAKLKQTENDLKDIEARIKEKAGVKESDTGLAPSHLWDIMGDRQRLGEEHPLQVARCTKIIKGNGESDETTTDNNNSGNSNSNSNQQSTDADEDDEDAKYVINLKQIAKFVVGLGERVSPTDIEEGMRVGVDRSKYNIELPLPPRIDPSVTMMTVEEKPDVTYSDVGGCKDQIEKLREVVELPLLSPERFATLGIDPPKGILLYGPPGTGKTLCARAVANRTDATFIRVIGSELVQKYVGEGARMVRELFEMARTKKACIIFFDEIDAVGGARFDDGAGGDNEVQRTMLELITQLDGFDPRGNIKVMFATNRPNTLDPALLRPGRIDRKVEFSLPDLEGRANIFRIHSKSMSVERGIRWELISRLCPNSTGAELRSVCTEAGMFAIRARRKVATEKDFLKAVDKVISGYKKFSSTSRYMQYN
As to the kind of experiment: co-IP.

Assay [2] has as its target T2, His6-tagged Rpt3 (S. cerevisiae), P33298.
T2 chain: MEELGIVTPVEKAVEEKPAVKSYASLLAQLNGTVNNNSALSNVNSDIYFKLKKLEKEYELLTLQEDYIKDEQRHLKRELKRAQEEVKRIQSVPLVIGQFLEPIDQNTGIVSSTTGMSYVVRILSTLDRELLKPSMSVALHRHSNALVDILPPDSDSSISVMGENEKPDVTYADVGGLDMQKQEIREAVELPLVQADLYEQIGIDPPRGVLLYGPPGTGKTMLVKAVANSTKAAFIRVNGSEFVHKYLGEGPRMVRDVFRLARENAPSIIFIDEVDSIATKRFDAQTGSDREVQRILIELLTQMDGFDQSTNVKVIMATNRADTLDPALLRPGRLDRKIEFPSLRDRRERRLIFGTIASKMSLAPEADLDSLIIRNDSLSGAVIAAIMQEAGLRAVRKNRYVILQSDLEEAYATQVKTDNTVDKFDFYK
As to the kind of experiment: pull-down. The following applies: remark: other sources report otherwise.

Assay [3] deals with T3, Rpn11 harboring TeV-ProA affinity tag (S. cerevisiae), P43588.
T3 chain: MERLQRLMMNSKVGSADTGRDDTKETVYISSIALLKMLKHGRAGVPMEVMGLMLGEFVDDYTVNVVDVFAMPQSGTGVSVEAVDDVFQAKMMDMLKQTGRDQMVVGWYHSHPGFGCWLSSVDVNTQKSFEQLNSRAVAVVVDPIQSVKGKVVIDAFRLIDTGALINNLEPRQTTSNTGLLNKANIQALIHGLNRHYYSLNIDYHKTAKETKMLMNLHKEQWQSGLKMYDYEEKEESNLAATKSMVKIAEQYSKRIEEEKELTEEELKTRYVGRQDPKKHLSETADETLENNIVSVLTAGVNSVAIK
As to the kind of experiment: pull-down. The following applies: remark: other sources report otherwise.

Rpt6 (from UniProt Q01939 1-405): the binding result in assay [1] is “binds”.

B1: Nas2, P40555 1-220 (protein)
chain: MEEEELSKLLANVKIDPSLTSRISQIDSFKLSELMVLKTDIETQLEAYFSVLEQQGIGMDSALVTPDGYPRSDVDVLQVTMIRKNVNMLKNDLNHLLQRSHVLLNQHFDNMNVKSNQDARRNNDDQAIQYTIPFAFISEVVPGSPSDKADIKVDDKLISIGNVHAANHSKLQNIQMVVMKNEDRPLPVLLLREGQILKTSLTPSRNWNGRGLLGCRIQEL
On to B1, for which the binding entry in assay [2] is “binds”.

B2: Nas2 (endogenous, yeast), P40555 1-220 (protein)
chain: B1 chain
Take B2: in assay [3], the binding entry is “no binding”.
